The supplement of paper PMC11060735
“And” between values parts separate entries of the source, which are not always exact repeats. Equal values may be shown once. Where a name gives a salt, the structure may show the parent alone. ± gives the standard deviation of the averaged measurements. Whole data set: some 1,800 compounds, median “GFP- (p16Ink4a-) cell count relative to negative-control wells” near 0.99, cut for the lowest 2% near 0.5. Some of the results follow.

These compounds were tested on mouse p16Ink4a+/- lung fibroblasts (INKBRITE, bleomycin-injured) (assay: GFP- (p16Ink4a-) cell count relative to negative-control wells (fold of vehicle); higher = more p16Ink4a- cells surviving). Conditions: 1 µM; 3 days.

Q: With CC(C)(OCc1nn(Cc2ccccc2)c2ccccc12)C(=O)O [Bindarit] as the compound, how does the GFP- read?
A: 1.09

Q: O=C(CCCS)NC1CCN(C(=O)COc2ccc(Cl)cc2Cl)CC1 [K-Ras(G12C) inhibitor 6] was tested. Which GFP- did it give?
A: 0.999

Q: For Nc1ccc(C(=O)Nc2cccc(-c3nc(N4CCOCC4)c4oc5ncccc5c4n3)c2)cn1, which GFP- is on record?
A: 0.688

Q: How did the GFP- turn out when C[C@]12CCC(=O)C=C1[C@@H]1C[C@@H]1[C@H]1[C@@H]3[C@@H]4C[C@@H]4[C@@]4(CCC(=O)O4)[C@@]3(C)CC[C@@H]12 [Drospirenone] was run?
A: 0.987

Q: With CC(=O)[C@]1(O)Cc2c(O)c3c(c(O)c2[C@@H](O[C@H]2C[C@H](N)[C@H](O)[C@H](C)O2)C1)C(=O)c1ccccc1C3=O [Idarubicin, Idarubicin Hydrochloride] as the compound, how does the GFP- read?
A: 0.224

Q: With CC(C)(C(=O)O)c1ccc(C(O)CCCN2CCC(C(O)(c3ccccc3)c3ccccc3)CC2)cc1 (centres undefined) [Fexofenadine] as the compound, how does the GFP- read?
A: 1.09

Q: With O=c1[nH]c(=O)n([C@H]2CCCO2)cc1F as the compound, how does the GFP- read?
A: 1.2

Q: With CCOC(=O)C1=C[C@@H](OC(CC)CC)[C@H](NC(C)=O)[C@@H](N)C1 [Oseltamivir] as the compound, how does the GFP- read?
A: 1.08

Q: How did the GFP- turn out when C[C@@H]1COC(Nc2ccc3ncnc(Nc4ccc(OCc5nccs5)c(Cl)c4)c3c2)=N1 [Varlitinib] was run?
A: 0.881

Q: For CC(=O)O[C@H]1C(=O)[C@@]2(C)C([C@H](OC(=O)c3ccccc3)[C@]3(O)C[C@H](OC(=O)[C@H](O)[C@@H](NC(=O)c4ccccc4)c4ccccc4)C(C)=C1C3(C)C)[C@]1(OC(C)=O)CO[C@@H]1C[C@@H]2O (some centres undefined) [Taxol, Paclitaxel], which GFP- is on record?
A: 0.505

Q: For C[C@H]1[C@H](C)CC[C@]2(C(=O)O)CC[C@]3(C)C(=CC[C@@H]4[C@@]5(C)C[C@@H](O)[C@H](O)[C@@](C)(CO)[C@@H]5CC[C@]43C)[C@H]12 [Asiatic Acid], which GFP- is on record?
A: 0.976

Q: CC(C)c1cc(C(=O)N2Cc3ccc(CN4CCN(C)CC4)cc3C2)c(O)cc1O [Onalespib] was tested. Which GFP- did it give?
A: 0.616

Q: With COc1ccc(-c2cc(=O)c3c(O)cc(O)cc3o2)cc1O [Diosmetin] as the compound, how does the GFP- read?
A: 1.1

Q: For Oc1ncc(F)c(O)n1 [Fluorouracil], which GFP- is on record?
A: 0.733

Q: For O=C1C[C@@H](c2ccc(O)cc2)Oc2cc(O)cc(O)c21 [Naringenin], which GFP- is on record?
A: 0.938

Q: Which GFP- does the source give for COc1cnc(NS(=O)(=O)c2ccc(N)cc2)nc1 [Sulfameter] here?
A: 0.919

Q: How did the GFP- turn out when Cc1cc(CN2CCN(c3c(Br)cnc4[nH]c(-c5ccc(N6CCN(C)CC6)cc5)nc34)CC2)no1 was run?
A: 0.664 ± 0.17

Q: Which GFP- does the source give for CN(C)Cc1c(C(=O)NCCOc2ccc(C(=O)NO)cc2)oc2ccccc12 [Abexinostat] here?
A: 0.637 ± 0.031

Q: Which GFP- does the source give for COc1ccc(-n2c(C)c([N+](=O)[O-])c3ccc(O)cc32)cc1 here?
A: 1

Q: Which GFP- does the source give for CC(=O)/N=c1/sc(S(N)(=O)=O)nn1C [Methazolamide] here?
A: 1.16

Q: CCCCCCCCc1ccc(CCC(N)(CO)CO)cc1 [Fingolimod] was tested. Which GFP- did it give?
A: 1.22

Q: With CC[C@@H](C)Nc1cc(C(=O)NC2CC3CCC(C2)N3c2ccc(C(=O)C3CC3)cn2)c(C)cc1C(N)=O (some centres undefined) as the compound, how does the GFP- read?
A: 0.518

Q: With COC(=O)Nc1ccc(-c2nc(N3CCOCC3)c3cnn(C4CCN(C(=O)OC)CC4)c3n2)cc1 as the compound, how does the GFP- read?
A: 1.02

Q: How did the GFP- turn out when Clc1ccc(COC(Cn2ccnc2)c2ccc(Cl)cc2Cl)cc1 (centres undefined) [Econazole] was run?
A: 1.06

Q: For Cc1ccc(-c2c(-c3nn(C)c4ncnc(N5CC[C@H](N6CCCCC6)C5)c34)cnn2C)cc1, which GFP- is on record?
A: 1.07

Q: Which GFP- does the source give for CC1(C)O[C@@H]2C[C@H]3[C@@H]4C[C@H](F)C5=CC(=O)C=C[C@]5(C)[C@@]4(F)[C@@H](O)C[C@]3(C)[C@]2(C(=O)CO)O1 [Fluocinolone Acetonide] here?
A: 1

Q: Cc1nc(NC(=O)N2CCC[C@H]2C(N)=O)sc1-c1csc(C(C)(C)C)n1 was tested. Which GFP- did it give?
A: 1.03

Q: For CCOC(=O)C1=C(C)N=C(C)/C(=C(/O)OCC)C1c1ccccc1/C=C/C(=O)OC(C)(C)C (centres undefined) [Lacidipine], which GFP- is on record?
A: 1.08

Q: With O=C(O)c1ccccc1 [Benzoic Acid] as the compound, how does the GFP- read?
A: 1.05

Q: For CC(=O)Nc1nc2c(Oc3cc(-c4ccc(C(F)(F)F)cc4)ncn3)cccc2s1, which GFP- is on record?
A: 0.87

Q: With O=C1c2ccccc2-c2[nH]nc3cccc1c23 [2,6-Dihydroanthra/1,9-Cd/Pyrazol-6-One] as the compound, how does the GFP- read?
A: 1.08

Q: CCc1nc(N)nc(N)c1-c1ccc(Cl)cc1 [Pyrimethamine] was tested. Which GFP- did it give?
A: 1

Q: O=C1C(Cl)=C(N2CCOCC2)C(=O)N1c1ccc(Cl)c(Cl)c1 was tested. Which GFP- did it give?
A: 1.05

Q: Cc1cnc(C(=O)NCCc2ccc(S(=O)(=O)NC(=O)NC3CCCCC3)cc2)cn1 [Glipizide] was tested. Which GFP- did it give?
A: 1.11

Q: For CCOc1ccc2ccccc2c1C(=O)N[C@@H]1C(=O)N2[C@@H]1SC(C)(C)[C@@H]2C(=O)O [Nafcillin Sodium], which GFP- is on record?
A: 0.94

Q: Which GFP- does the source give for O=C(O)c1cccc(-c2noc(-c3ccccc3F)n2)c1 [Ataluren] here?
A: 1.07

Q: With CO/C(O)=C1\C(C)=NC(C)=C(C(=O)OCCN2CCN(C(c3ccccc3)c3ccccc3)CC2)C1c1cccc([N+](=O)[O-])c1 (centres undefined) [Manidipine] as the compound, how does the GFP- read?
A: 0.985 and 0.964

Q: With O=c1c(O)c(-c2cc(O)c(O)c(O)c2)oc2cc(O)cc(O)c12 [Myricetin] as the compound, how does the GFP- read?
A: 1

Q: For C[C@]12C=CC(=O)C=C1CC[C@@H]1[C@@H]2[C@@H](O)C[C@@]2(C)[C@H]1CC[C@]2(O)C(=O)CO [Prednisolone], which GFP- is on record?
A: 0.983

Q: CCCCNC(=O)NS(=O)(=O)c1ccc(C)cc1 [Tolbutamide] was tested. Which GFP- did it give?
A: 0.985

Q: How did the GFP- turn out when CN1C(C(=O)Nc2ccccn2)=C(O)c2sccc2S1(=O)=O [Tenoxicam] was run?
A: 1.07

Q: COc1cc(-c2ncn(/C=C\C(=O)OC(C)C)n2)cc(C(F)(F)F)c1 was tested. Which GFP- did it give?
A: 0.671

Q: O=C(Nc1ccccc1-c1cn2c(CN3CCNCC3)csc2n1)c1cnc2ccccc2n1 was tested. Which GFP- did it give?
A: 0.752 and 0.432

Q: How did the GFP- turn out when COc1c(C)c2c(c(O)c1C/C=C(\C)CCC(=O)O)C(=O)OC2 [Mycophenolic Acid] was run?
A: 0.718

Q: Which GFP- does the source give for C=CC[N+]1([C@H]2C[C@H]3[C@@H]4CC[C@H]5C[C@H](O)[C@@H](N6CCOCC6)C[C@]5(C)[C@H]4CC[C@]3(C)[C@H]2OC(C)=O)CCCC1 [Rocuronium] here?
A: 0.894

Q: C/C(=C\C(=O)Nc1ccccc1C(=O)O)c1ccc2ccccc2c1 was tested. Which GFP- did it give?
A: 1.23

Q: Which GFP- does the source give for Nc1ccccc1NC(=O)c1ccc(CNc2nccc(-c3cccnc3)n2)cc1 [Mocetinostat] here?
A: 0.436 ± 0.22

Q: How did the GFP- turn out when C#Cc1cccc(Nc2ncnc3cc(OCCOC)c(OCCOC)cc23)c1 [Erlotinib] was run?
A: 0.287

Q: COc1ccc(-c2coc3cc(O)ccc3c2=O)cc1 [Formononetin] was tested. Which GFP- did it give?
A: 0.986

Q: With COc1cc(O)cc([C@@H]2CC(=O)c3c(O)cc(O[C@@H]4O[C@H](CO)[C@@H](O)[C@H](O)[C@H]4O[C@@H]4O[C@@H](C)[C@H](O)[C@@H](O)[C@H]4O)cc3O2)c1 [Neohesperidin] as the compound, how does the GFP- read?
A: 0.932

Q: With CCCCOc1cc(C(=O)NCCN(CC)CC)c2ccccc2n1 [Cinchocaine] as the compound, how does the GFP- read?
A: 0.998

Q: For O=C1CCc2ccc(OCCCCN3CCN(c4cccc(Cl)c4Cl)CC3)cc2N1 [Aripiprazole], which GFP- is on record?
A: 0.94

Q: With O=C(O)c1ccc2c(c1)nc(Nc1cccc(Cl)c1)c1ccncc12 [Silmitasertib] as the compound, how does the GFP- read?
A: 1.12

Q: For CC(C)NCC(O)COc1cccc2ccccc12 (centres undefined) [Propranolol], which GFP- is on record?
A: 0.987

Q: For CCCCc1nc2cc(/C=C/C(=O)NO)ccc2n1CCN(CC)CC [Pracinostat], which GFP- is on record?
A: 0.53 ± 0.063

Q: Which GFP- does the source give for COc1ccccc1Oc1c(NS(=O)(=O)c2ccc(C(C)(C)C)cc2)nc(-c2ncccn2)nc1OCCO [Bosentan] here?
A: 0.939

Q: Which GFP- does the source give for CC1(C)O[C@@H]2[C@@H](CO[C@@]3(COS(N)(=O)=O)OC(C)(C)O[C@@H]23)O1 [Topiramate] here?
A: 1.11

Q: How did the GFP- turn out when N#Cc1c(Oc2ccc(F)c(NC(=O)Cc3cccc(C(F)(F)F)c3)c2)ccc2nc(NC(=O)C3CC3)sc12 was run?
A: 1.05

Q: CC(C)C1CCC(C(=O)N[C@H](Cc2ccccc2)C(=O)O)CC1 (some centres undefined) [Nateglinide] was tested. Which GFP- did it give?
A: 1.06

Q: CCCCCCCCCCCCCCCCO [1-Hexadecanol] was tested. Which GFP- did it give?
A: 0.837

Q: Which GFP- does the source give for Nc1ccn([C@@H]2O[C@H](CO)[C@@H](O)[C@@H]2O)c(=O)n1 [Cytarabine] here?
A: 0.757

Q: For COc1cccc2c1[O][Mn]13([Cl])<-[N](=C2)CC[N]->1=Cc1cccc(OC)c1[O]3, which GFP- is on record?
A: 1.04

Q: For CCCCOc1ccc(CC(=O)NO)cc1 [Bufexamac], which GFP- is on record?
A: 0.962

Q: For Clc1ccccc1C(c1ccccc1)(c1ccccc1)n1ccnc1 [Clotrimazole], which GFP- is on record?
A: 0.983

Q: Cc1cc(C)cc(NC(=O)Cc2ccc(OC(C)(C)C(=O)O)cc2)c1 [Efaproxiral Sodium] was tested. Which GFP- did it give?
A: 1.07

Q: With COc1cc2c(cc1-c1c(C)noc1C)ncc1nc(O)n([C@H](C)c3ccccn3)c12 as the compound, how does the GFP- read?
A: 0.997 ± 0.029

Q: With COc1ccc2c(c1)c(CC(=O)O)c(C)n2C(=O)c1ccc(Cl)cc1 [Indomethacin] as the compound, how does the GFP- read?
A: 0.977

Q: Which GFP- does the source give for COc1ccccc1OCC(O)COC(N)=O (centres undefined) [Methocarbamol] here?
A: 1.04

Q: Which GFP- does the source give for O=C(c1cn(Cc2cncn2Cc2ccc(Br)cc2)cc1-c1cccc2ccccc12)N1CCOCC1 here?
A: 0.845

Q: For NC(=O)NO [Hydroxyurea], which GFP- is on record?
A: 0.929

Q: How did the GFP- turn out when O=C(N/N=C/c1ccc(O)c(O)c1)c1cc2ccccc2cc1O [Dynasore] was run?
A: 1.14

Q: CN1CCN(C2=Nc3cc(Cl)ccc3Nc3ccccc32)CC1 [Clozapine] was tested. Which GFP- did it give?
A: 1.12

Q: With C[C@H](Nc1ncnc2[nH]cnc12)c1cc2cccc(Cl)c2c(=O)n1-c1ccccc1 as the compound, how does the GFP- read?
A: 0.96

Q: With CCOC(=O)c1ccc(OC(=O)CCCCCN=C(N)N)cc1 [Gabexate] as the compound, how does the GFP- read?
A: 1

Q: Which GFP- does the source give for Nc1ccc(N=Nc2ccccc2)c(N)n1 [Phenazopyridine] here?
A: 1.03

Q: For Nc1cccc2c1CN(C1CCC(=O)NC1=O)C2=O (centres undefined) [Lenalidomide], which GFP- is on record?
A: 1.03

Q: With Cn1cnc2c(F)c(Nc3ccc(Br)cc3F)c(C(=O)NOCCO)cc21 as the compound, how does the GFP- read?
A: 0.713

Q: Which GFP- does the source give for Cc1cc(O)c2c(c1)C(=O)c1cc(O)cc(O)c1C2=O [Emodin] here?
A: 0.999

Q: Which GFP- does the source give for CS(=O)(=O)c1ccc(C(=O)Nc2ccc(Cl)c(-c3ccccn3)c2)c(Cl)c1 [Vismodegib] here?
A: 1.15
